Results deposited as PubChem BioAssay AID1259308 (NCATS, 2017)
This is a random part of about 59,000 reagents. In the full data, about 1,510 (2.6%) are marked active. 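Calls use total luciferase alone and ignore viability, so some active siRNAs may act by altering cell number.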 Reagents against one gene are numbered here. No sequences are given here.

Test: 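Genes whose loss raises luciferase production in HEK293 cells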 (primary screen)
System: human HEK293 embryonic kidney cells stably expressing firefly luciferase (HEK-CMV-Luc2-Hygro)
Reagents: single siRNA against human genes, 0.8 pmol siRNA per well
Time to read-out: 72 h
Detection: 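Luciferase light (ONE-Glo) measured on one replicate plate set and viability (CellTiter-Glo) on the other, scaled to a negative control siRNA, with robust z-scores and luciferase per cell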
Direction: total luciferase, z-score and total luciferase, % of control: higher = more reporter protein produced; luciferase per cell, z-score: higher = more reporter output per viable cell; viable cells, % of control: higher = more viable cells
Call rule: 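An siRNA counts as active if its total luciferase robust z-score exceeds 3; genes with two or more such siRNAs out of three were retested with fresh siRNAs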
Calls: active = raised luciferase; inactive = no rise

no.	Gene	reagent no.	total luciferase, z-score	total luciferase, % of control	luciferase per cell, z-score	viable cells, % of control	Outcome
1	OTUD1 (GeneID 220213)	1	-0.0904	80.1	-0.157	93.3	inactive
2	OTUD1 (GeneID 220213)	2	-1.32	55.7	0.46	55.2	inactive
3	OTUD1 (GeneID 220213)	3	-0.703	67.9	-0.153	79	inactive
4	MSR1 (GeneID 4481)	1	0.656	94.9	0.973	82.1	inactive
5	MSR1 (GeneID 4481)	2	1.93	120	0.608	114	inactive
6	MSR1 (GeneID 4481)	3	1.41	110	0.925	96.2	inactive
7	SLC25A11 (GeneID 8402)	1	1.51	112	1.26	89.7	inactive
8	SLC25A11 (GeneID 8402)	2	1.06	103	0.175	110	inactive
9	SLC25A11 (GeneID 8402)	3	0.277	87.4	-0.193	103	inactive
10	EIF4B (GeneID 1975)	1	-1.04	61.2	-0.828	85	inactive
11	EIF4B (GeneID 1975)	2	-1.02	61.7	-1.19	94.3	inactive
12	EIF4B (GeneID 1975)	3	-0.271	76.5	-0.402	95	inactive
13	UNC45A (GeneID 55898)	1	3.07	143	1.56	106	active
14	UNC45A (GeneID 55898)	2	2.56	133	0.794	120	inactive
15	UNC45A (GeneID 55898)	3	-0.507	71.8	-0.563	93	inactive
16	TWIST2 (GeneID 117581)	1	-1.45	53.1	-2.09	103	inactive
17	TWIST2 (GeneID 117581)	2	-1.43	53.4	-1.9	98.4	inactive
18	TWIST2 (GeneID 117581)	3	0.096	83.8	0.712	77.6	inactive
19	ADAM30 (GeneID 11085)	1	-0.55	70.9	-0.69	95.1	inactive
20	ADAM30 (GeneID 11085)	2	-0.167	78.6	-0.537	101	inactive
21	ADAM30 (GeneID 11085)	3	3.04	142	1.43	109	active
22	DGKZ (GeneID 8525)	1	0.262	87.1	-0.346	107	inactive
23	DGKZ (GeneID 8525)	2	-0.389	74.2	-0.656	98.5	inactive
24	DGKZ (GeneID 8525)	3	1.2	106	2.18	66.6	inactive
25	CORO7 (GeneID 79585)	1	-0.571	70.5	-0.603	92.4	inactive
26	CORO7 (GeneID 79585)	2	-0.564	70.7	0.703	65.6	inactive
27	CORO7 (GeneID 79585)	3	-0.912	63.8	-0.718	86.1	inactive
28	H3P44 (GeneID 347376)	1	1.34	108	0.574	104	inactive
29	H3P44 (GeneID 347376)	2	0.481	91.5	0.729	84.3	inactive
30	H3P44 (GeneID 347376)	3	0.288	87.6	0.425	87.6	inactive

8 entries already listed, sorted by “viable cells, % of control”, highest first.
Gene	reagent no.	total luciferase, z-score	total luciferase, % of control	luciferase per cell, z-score	viable cells, % of control	Outcome
ADAM30 (GeneID 11085)	3	3.04	142	1.43	109	active
DGKZ (GeneID 8525)	1	0.262	87.1	-0.346	107	inactive
ADAM30 (GeneID 11085)	2	-0.167	78.6	-0.537	101	inactive
DGKZ (GeneID 8525)	2	-0.389	74.2	-0.656	98.5	inactive
CORO7 (GeneID 79585)	1	-0.571	70.5	-0.603	92.4	inactive
CORO7 (GeneID 79585)	3	-0.912	63.8	-0.718	86.1	inactive
DGKZ (GeneID 8525)	3	1.2	106	2.18	66.6	inactive
CORO7 (GeneID 79585)	2	-0.564	70.7	0.703	65.6	inactive

The listing continues.
no.	Gene	reagent no.	total luciferase, z-score	total luciferase, % of control	luciferase per cell, z-score	viable cells, % of control	Outcome
31	DNAJC27 (GeneID 51277)	1	-1.28	56.4	-0.486	71.7	inactive
32	DNAJC27 (GeneID 51277)	2	0.22	86.3	-0.155	100	inactive
33	DNAJC27 (GeneID 51277)	3	1.57	113	1.2	92.3	inactive
34	INSL4 (GeneID 3641)	1	-0.795	66.1	-0.744	89.8	inactive
35	INSL4 (GeneID 3641)	2	-0.0578	80.7	1.47	61.2	inactive
36	INSL4 (GeneID 3641)	3	-2.87	24.8	-3.65	72.7	inactive
37	AIFM2 (GeneID 84883)	1	0.693	95.7	1.83	66.1	inactive
38	AIFM2 (GeneID 84883)	2	-0.606	69.8	-1.04	103	inactive
39	AIFM2 (GeneID 84883)	3	-0.14	79.1	-0.484	100	inactive
40	DOC2A (GeneID 8448)	1	0.0839	83.6	-0.31	101	inactive
41	DOC2A (GeneID 8448)	2	-0.85	65	-0.835	90.5	inactive
42	DOC2A (GeneID 8448)	3	4.16	165	2.69	90.6	active
43	LOC644554 (GeneID 644554)	1	0.306	88	0.682	82.1	inactive
44	LOC644554 (GeneID 644554)	2	0.488	91.6	0.283	95	inactive
45	LOC644554 (GeneID 644554)	3	-0.0153	81.6	0.263	85.1	inactive
46	TOX3 (GeneID 27324)	1	-1.38	54.5	-0.874	76.7	inactive
47	TOX3 (GeneID 27324)	2	-0.822	65.5	-1.43	107	inactive
48	TOX3 (GeneID 27324)	3	0.918	100	1.12	83.4	inactive
49	KRT24 (GeneID 192666)	1	-0.446	73	-0.452	91.9	inactive
50	KRT24 (GeneID 192666)	2	2.19	125	1.98	83.2	inactive
51	KRT24 (GeneID 192666)	3	0.59	93.6	0.921	82.1	inactive
52	C2orf76 (GeneID 130355)	1	-0.867	64.6	-0.749	88	inactive
53	C2orf76 (GeneID 130355)	2	3.77	157	2.43	92.4	active
54	C2orf76 (GeneID 130355)	3	-0.803	65.9	-1.13	99.1	inactive
55	SERF1B (GeneID 728492)	1	-0.391	74.1	-0.428	92.7	inactive
56	SERF1B (GeneID 728492)	2	0.345	88.7	0.16	95.1	inactive
57	SERF1B (GeneID 728492)	3	-0.202	77.9	-0.419	97.2	inactive
58	SEC24C (GeneID 9632)	1	0.324	88.3	-0.853	124	inactive
59	SEC24C (GeneID 9632)	2	1.27	107	0.677	100	inactive
60	SEC24C (GeneID 9632)	3	-0.376	74.4	-0.202	87.7	inactive
61	CREB3L2 (GeneID 64764)	1	1.85	119	2.16	75.1	inactive
62	CREB3L2 (GeneID 64764)	2	-0.946	63.1	-1.46	104	inactive
63	CREB3L2 (GeneID 64764)	3	-0.214	77.6	-0.671	103	inactive
64	PI4K2A (GeneID 55361)	1	1.52	112	2.4	66.7	inactive
65	PI4K2A (GeneID 55361)	2	0.373	89.3	0.408	89.6	inactive
66	PI4K2A (GeneID 55361)	3	0.112	84.1	0.521	82	inactive
67	STX7 (GeneID 8417)	1	0.56	93	0.126	101	inactive
68	STX7 (GeneID 8417)	2	0.32	88.2	0.0795	96.6	inactive
69	STX7 (GeneID 8417)	3	-0.686	68.2	-0.959	98.2	inactive
70	PRDM10 (GeneID 56980)	1	1.03	102	1.03	87.1	inactive
71	PRDM10 (GeneID 56980)	2	0.0604	83.1	-0.379	103	inactive
72	PRDM10 (GeneID 56980)	3	-0.122	79.5	0.589	76	inactive
73	ZNF561 (GeneID 93134)	1	-0.122	79.5	0.204	84.1	inactive
74	ZNF561 (GeneID 93134)	2	0.433	90.5	0.76	82.8	inactive
75	ZNF561 (GeneID 93134)	3	0.0687	83.3	0.00855	92.8	inactive
